Laboratory results from patent US7015236B2, “N-heteroarylnicotinamide derivatives” (Sankyo Agro Company, Limited, priority 2001, dated 2006).
Some results were stated once for a whole list of compounds, not compound by compound.

system: green peach aphid (Myzus persicae); test: Insecticidal test for green peach aphid (100 ppm), Test Example 1; assay type: in vivo; conditions: 100 ppm spray on Komatsuna leaf; larvae; counted 5 days after spraying; 25° C.
Protocol: Insecticidal test for green peach aphid (Myzus persicae) (100 ppm)
Water (30 ml) was put into a beaker, and a leaf of Komatsuna (Brassica var. rapa) was placed within the beaker such that the stem was immersed in water. On the leaf of Komatsuna, five green peach aphids were released and allowed to fertilize. Two days after the releasing, imagoes were removed and the number of larvae was counted.
A surfactant Newcol NE-710F (trademark, produced by Nippon Nyukazai Co., Ltd., 2%) was dissolved in aqueous acetone (95% aqueous solution, 98%) to prepare solution 1. Next, a dispersant Gousenol GLO5-S (trademark, produced by Nippon Nyukazai Co., Ltd., 0.2% aqueous solution, 0.2%) was dissolved in water (99.8%) to prepare solution 2.
To each of the compounds (8 mg) of the present invention, the above solution 1 (0.4 ml), the above solution 2 (0.4 ml) and water (8 ml) were added. Further, the compounds of the present invention were each diluted with water so that the concentration of each compound was 100 ppm {as a spreading agent, Gramin S (trademark, produced by Sankyo Co., Ltd.) was added so as to have a concentration of 0.01%}.
The above chemical liquid (8 ml) was sprayed on the leaf of Komatsuna by use of a rotary spraying tower. The leaf of Komatsuna was put back in the beaker. Then, the beaker was placed in a thermostatic chamber of 25° C. for 16 hours in the light and for 8 hours in the dark. 5 Days after the spraying, the number of dead insects was counted to calculate the mortality (%).

Structure (SMILES) | mortality (%)
O=C(Nc1oncc1I)c1cnccc1C(F)(F)F [Example 25, N-(4-Iode-5-isoxazolyl)-4-(trifluoromethyl)nicotinamide] | ≥ 95%
Cc1cnoc1NC(=O)c1cnccc1C(F)(F)F [Example 32, N-(4-Methyl-5-isoxazolyl)-4-(trifluoromehyl)nicotinamide] | ≥ 95%
CCOCN(C(=O)c1cnccc1C(F)(F)F)c1oncc1I [Example 31, N-Ethoxymethyl-N-(4-iode-5-isoxazolyl)-4-(trifluoromethyl)nicotinamide] | ≥ 95%
Cc1noc(NC(=O)c2cnccc2C(F)(F)F)c1I [Example 15, N-(4-Iode-3-methyl-5-isoxazolyl)-4-(trifluoromethyl)nicotinamide] | ≥ 95%
C=CCN(C(=O)c1cnccc1C(F)(F)F)c1cc(C)no1 [Example 18, N-Allyl-N-(3-methyl-5-isoxazolyl)-4-(trifluoromehyl)nicotinamide] | ≥ 95%
